Laboratory results reported in the supplement of paper PMC10849652.
The list shows a part of the results.

Sequences of proteins named here, by UniProt entry; tags and fusion partners are left off. A change or cut given only in a name is not applied to a line headed by its entry.
UniProt Q92502: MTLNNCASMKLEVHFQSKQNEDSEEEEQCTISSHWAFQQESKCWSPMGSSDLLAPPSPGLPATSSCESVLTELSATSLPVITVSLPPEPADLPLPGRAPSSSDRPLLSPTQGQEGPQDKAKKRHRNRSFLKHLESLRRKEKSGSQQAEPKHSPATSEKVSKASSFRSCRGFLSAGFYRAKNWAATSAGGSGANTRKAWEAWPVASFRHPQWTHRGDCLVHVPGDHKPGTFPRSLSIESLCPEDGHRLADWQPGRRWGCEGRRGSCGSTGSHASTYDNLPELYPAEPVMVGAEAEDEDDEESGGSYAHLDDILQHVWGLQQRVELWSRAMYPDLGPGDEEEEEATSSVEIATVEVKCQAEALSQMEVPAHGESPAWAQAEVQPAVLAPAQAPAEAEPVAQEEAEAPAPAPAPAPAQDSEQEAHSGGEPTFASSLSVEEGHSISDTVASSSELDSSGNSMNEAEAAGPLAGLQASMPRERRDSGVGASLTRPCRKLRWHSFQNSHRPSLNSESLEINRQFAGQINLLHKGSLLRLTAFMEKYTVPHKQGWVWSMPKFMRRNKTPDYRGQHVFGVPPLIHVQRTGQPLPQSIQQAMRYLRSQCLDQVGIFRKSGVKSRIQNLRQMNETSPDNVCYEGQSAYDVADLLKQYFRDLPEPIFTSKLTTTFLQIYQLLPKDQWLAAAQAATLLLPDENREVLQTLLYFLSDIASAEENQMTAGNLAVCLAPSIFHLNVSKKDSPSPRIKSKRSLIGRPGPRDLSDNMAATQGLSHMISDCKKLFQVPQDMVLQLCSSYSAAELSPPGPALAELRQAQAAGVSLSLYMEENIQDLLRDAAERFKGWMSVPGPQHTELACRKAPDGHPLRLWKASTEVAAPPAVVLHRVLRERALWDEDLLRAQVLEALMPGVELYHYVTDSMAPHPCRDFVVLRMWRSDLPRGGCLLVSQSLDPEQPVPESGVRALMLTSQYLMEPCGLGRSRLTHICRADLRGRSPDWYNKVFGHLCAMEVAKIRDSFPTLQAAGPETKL
UniProt Q9BWG4: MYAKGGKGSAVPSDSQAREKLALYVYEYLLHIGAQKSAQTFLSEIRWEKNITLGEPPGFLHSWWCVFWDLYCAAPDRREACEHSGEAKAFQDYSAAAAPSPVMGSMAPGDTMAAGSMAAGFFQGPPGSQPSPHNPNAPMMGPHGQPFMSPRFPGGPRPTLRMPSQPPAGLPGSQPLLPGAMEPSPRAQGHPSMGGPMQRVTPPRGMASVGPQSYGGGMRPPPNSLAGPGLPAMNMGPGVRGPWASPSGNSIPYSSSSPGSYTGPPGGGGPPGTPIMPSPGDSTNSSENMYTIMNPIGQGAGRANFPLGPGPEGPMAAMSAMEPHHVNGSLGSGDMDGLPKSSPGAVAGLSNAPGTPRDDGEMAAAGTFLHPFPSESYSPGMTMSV
UniProt P35325: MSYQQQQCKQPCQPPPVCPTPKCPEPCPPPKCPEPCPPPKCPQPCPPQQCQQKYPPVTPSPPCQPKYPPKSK
UniProt Q8N9Q2: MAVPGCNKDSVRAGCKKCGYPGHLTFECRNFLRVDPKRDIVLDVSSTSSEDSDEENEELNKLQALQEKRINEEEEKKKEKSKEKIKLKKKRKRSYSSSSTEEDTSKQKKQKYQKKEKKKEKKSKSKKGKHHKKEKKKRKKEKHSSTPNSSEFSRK
UniProt Q01082, whole entry, looked up: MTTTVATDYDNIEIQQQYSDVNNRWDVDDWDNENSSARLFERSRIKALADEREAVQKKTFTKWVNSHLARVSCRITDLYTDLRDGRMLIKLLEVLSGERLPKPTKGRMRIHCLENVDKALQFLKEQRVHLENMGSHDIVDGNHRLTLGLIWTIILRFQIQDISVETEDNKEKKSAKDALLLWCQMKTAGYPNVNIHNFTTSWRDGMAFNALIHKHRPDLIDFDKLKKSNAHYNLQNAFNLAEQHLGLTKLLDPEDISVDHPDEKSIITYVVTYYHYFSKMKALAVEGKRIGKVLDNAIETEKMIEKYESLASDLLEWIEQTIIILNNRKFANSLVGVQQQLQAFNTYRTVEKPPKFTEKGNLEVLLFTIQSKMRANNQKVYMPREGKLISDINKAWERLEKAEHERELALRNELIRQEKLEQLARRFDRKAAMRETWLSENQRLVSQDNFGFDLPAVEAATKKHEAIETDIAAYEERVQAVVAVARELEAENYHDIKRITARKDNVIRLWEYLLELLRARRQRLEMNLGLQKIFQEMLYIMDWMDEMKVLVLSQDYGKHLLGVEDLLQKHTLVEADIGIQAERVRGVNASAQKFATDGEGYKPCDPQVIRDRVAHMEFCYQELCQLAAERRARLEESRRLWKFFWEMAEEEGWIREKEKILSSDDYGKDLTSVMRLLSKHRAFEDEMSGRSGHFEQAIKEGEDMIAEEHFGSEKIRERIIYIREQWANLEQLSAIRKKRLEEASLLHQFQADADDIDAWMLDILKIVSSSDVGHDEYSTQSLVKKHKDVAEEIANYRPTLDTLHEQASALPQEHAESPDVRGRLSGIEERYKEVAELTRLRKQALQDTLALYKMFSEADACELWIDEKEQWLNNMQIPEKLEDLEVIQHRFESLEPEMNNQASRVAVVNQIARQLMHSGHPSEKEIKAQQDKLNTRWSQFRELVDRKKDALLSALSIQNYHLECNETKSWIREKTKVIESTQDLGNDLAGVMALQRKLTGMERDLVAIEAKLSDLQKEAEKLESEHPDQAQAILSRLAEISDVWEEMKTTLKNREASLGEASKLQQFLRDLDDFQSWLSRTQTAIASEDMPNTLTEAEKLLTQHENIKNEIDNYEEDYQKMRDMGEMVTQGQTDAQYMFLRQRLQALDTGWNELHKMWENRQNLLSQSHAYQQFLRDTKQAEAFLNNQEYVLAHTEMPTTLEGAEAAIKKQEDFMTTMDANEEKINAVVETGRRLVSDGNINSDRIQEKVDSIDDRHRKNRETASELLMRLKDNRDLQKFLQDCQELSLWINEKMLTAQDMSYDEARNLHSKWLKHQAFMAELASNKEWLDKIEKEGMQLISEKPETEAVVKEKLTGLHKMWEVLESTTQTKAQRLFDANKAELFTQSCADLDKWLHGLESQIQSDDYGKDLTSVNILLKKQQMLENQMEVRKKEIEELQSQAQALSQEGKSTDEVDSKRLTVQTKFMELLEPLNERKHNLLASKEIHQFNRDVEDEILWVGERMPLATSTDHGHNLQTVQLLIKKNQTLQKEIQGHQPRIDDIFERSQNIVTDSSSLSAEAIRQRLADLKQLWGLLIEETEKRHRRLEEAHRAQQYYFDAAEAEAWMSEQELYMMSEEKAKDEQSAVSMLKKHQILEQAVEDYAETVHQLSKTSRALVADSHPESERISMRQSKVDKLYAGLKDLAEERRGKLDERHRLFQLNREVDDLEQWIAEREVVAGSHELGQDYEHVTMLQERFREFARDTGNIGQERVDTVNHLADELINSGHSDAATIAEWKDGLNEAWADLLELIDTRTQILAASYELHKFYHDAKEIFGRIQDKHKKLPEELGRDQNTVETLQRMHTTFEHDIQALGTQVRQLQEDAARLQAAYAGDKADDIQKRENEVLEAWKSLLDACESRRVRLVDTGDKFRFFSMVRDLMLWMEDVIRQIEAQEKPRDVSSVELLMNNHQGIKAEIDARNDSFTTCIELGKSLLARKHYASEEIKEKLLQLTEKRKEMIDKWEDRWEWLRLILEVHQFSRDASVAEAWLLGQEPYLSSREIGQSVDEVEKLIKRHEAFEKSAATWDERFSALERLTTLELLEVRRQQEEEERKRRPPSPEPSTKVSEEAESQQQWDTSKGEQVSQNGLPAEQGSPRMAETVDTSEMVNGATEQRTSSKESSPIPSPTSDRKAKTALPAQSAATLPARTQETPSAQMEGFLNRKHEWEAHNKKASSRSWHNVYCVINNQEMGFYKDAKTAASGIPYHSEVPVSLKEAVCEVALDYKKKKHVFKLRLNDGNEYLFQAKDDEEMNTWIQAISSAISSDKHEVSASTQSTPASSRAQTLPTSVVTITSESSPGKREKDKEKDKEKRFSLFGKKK
UniProt Q8N3U4: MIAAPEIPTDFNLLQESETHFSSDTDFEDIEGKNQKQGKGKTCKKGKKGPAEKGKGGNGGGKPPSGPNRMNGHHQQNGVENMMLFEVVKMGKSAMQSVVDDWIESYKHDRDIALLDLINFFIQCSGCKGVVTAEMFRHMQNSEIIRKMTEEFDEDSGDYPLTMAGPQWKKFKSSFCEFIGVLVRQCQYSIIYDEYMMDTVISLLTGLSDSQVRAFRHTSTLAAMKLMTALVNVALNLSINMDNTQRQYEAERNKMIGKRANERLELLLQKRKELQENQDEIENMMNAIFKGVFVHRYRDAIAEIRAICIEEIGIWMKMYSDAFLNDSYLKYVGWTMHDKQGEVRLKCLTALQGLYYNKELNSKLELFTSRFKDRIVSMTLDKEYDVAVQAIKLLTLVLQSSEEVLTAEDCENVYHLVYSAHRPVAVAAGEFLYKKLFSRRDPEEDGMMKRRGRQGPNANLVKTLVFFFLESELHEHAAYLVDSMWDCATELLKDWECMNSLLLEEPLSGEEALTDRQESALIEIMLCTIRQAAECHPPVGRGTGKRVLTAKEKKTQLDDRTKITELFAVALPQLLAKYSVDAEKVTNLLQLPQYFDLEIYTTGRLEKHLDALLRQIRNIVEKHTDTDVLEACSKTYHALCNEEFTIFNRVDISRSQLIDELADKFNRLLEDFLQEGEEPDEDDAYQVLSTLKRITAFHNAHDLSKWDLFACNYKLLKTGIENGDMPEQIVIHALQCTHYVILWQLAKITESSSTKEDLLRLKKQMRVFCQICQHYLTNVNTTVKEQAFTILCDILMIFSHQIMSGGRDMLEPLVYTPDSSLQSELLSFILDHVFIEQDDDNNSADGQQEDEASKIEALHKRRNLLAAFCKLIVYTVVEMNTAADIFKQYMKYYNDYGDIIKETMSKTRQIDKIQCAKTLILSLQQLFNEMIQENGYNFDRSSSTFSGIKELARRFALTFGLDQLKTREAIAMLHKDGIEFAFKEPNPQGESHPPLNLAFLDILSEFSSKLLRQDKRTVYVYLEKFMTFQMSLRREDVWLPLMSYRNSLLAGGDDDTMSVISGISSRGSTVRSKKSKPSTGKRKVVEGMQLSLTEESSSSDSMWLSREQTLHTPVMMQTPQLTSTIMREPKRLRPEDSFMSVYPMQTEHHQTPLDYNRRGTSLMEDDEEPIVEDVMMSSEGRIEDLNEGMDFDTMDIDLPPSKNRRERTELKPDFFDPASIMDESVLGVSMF
UniProt Q96DR4, whole entry, looked up: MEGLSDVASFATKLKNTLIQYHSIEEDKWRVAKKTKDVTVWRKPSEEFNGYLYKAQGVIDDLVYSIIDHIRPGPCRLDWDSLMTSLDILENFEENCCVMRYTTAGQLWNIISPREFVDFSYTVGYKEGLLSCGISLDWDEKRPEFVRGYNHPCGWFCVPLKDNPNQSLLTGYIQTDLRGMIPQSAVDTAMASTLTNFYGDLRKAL
UniProt P43308: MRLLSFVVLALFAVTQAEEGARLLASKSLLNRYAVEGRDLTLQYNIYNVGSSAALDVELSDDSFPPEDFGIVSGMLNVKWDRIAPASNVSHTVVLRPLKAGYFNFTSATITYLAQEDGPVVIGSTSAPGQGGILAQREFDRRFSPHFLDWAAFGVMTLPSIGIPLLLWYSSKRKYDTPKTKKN
UniProt Q8NCJ5: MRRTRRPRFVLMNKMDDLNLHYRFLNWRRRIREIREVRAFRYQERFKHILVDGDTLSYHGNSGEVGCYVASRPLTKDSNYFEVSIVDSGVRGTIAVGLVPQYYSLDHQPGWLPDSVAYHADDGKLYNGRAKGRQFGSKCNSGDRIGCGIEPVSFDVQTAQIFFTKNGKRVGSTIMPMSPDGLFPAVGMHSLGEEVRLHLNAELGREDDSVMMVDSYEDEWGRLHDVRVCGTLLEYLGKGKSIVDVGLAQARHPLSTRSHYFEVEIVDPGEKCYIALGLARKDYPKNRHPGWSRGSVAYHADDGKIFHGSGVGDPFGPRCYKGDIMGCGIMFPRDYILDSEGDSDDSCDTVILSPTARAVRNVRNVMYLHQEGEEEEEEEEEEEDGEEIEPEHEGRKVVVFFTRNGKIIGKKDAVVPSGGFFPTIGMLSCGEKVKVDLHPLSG
UniProt O75177, whole entry, looked up: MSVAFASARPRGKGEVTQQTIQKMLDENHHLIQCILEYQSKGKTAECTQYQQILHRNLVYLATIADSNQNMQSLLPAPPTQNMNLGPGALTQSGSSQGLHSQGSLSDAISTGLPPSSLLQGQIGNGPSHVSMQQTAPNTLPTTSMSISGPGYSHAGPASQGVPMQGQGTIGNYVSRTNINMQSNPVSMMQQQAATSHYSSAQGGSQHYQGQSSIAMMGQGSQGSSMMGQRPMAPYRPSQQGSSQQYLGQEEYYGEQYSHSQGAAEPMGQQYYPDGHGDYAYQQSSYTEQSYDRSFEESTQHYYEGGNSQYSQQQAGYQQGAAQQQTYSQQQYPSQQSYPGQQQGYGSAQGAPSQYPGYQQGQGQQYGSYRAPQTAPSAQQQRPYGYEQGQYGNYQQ

compound: C1CN(CCC1(CC2=CC=C(C=C2)Cl)N)C3=NC=NC4=C3C=CN4; assay: log2 fold change, soluble protein after heating vs DMSO (PISA); higher = thermal stabilisation; K562 lysate, 10 uM; active = over 0.2 and 3.5 SD of the protein, either way, in both replicates (recomputed)
In short: (§1)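 To prepare the extract, K562 pellets were dounce-homogenised in PBS pH 7.4 with 1 mM MgCl2, giving crude material at 1 mg/mL protein. This was treated with 10 μM compound for 30 min, then heated in aliquots for 3 min over 48°C-58°C before pooling and addition of NP-40 to 0.5% at 4°C. Centrifugation at 21,000xg for 90 min left soluble protein in the supernatant, which TMTpro 16plex LC-MS/MS quantified with equalised channel sums. Results are log-two fold changes in thermal stability compared with solvent controls, from duplicates.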

log2 fold change, inactive:
STARD8 isoform 2 (UniProt Q92502) 0.006
SSBP4 (UniProt Q9BWG4) 0.108
STEAP3 isoform 2 (UniProt Q658P3) 0.081
SPRED1 (UniProt Q7Z699) 0.025
SPC24 (UniProt K7ESQ2) 0.077
SQOR (UniProt Q9Y6N5) 0.075
SPTAN1 isoform 3 (UniProt Q13813) 0.022
SPRR2B (UniProt P35325) 0.145
SREK1IP1 (UniProt Q8N9Q2) 0.068
SRC isoform 2 (UniProt P12931) -0.069
SPRTN (UniProt Q9H040) -0.076
SPTBN1 isoform 3 (UniProt Q01082) -0.144
STAG2 (UniProt Q8N3U4) 0.124
SPATA33 isoform 2 (UniProt Q96N06) -0.036
STARD4 (UniProt Q96DR4) 0.016
STAG1 (UniProt Q8WVM7) 0.149
SRCIN1 (UniProt Q9C0H9) -0.059
SSX2IP (UniProt Q9Y2D8) 0.02

compound: C1COCCN1CCN2C3=CC=CC=C3N=C2NC(=O)C4=CC(=CC=C4)[N+](=O)[O-] [IRAK-1-4 Inhibitor I]; assay: as above
In short: as §1

log2 fold change, inactive:
STARD8 isoform 2 (UniProt Q92502) -0.011
STEAP3 isoform 2 (UniProt Q658P3) 0.027
SRP14 (UniProt H0YLW0) 0.211
SPRED1 (UniProt Q7Z699) 0.043
SREBF1 isoform 4 (UniProt P36956) -0.015
SQOR (UniProt Q9Y6N5) -0.017
STAB1 (UniProt Q9NY15) 0.057
SPRR2B (UniProt P35325) 0
SPTY2D1 (UniProt Q68D10) 0.086
SREK1IP1 (UniProt Q8N9Q2) -0.04
SRC isoform 2 (UniProt P12931) 0.034
SPRTN (UniProt Q9H040) -0.016
SPTBN1 isoform 3 (UniProt Q01082) -0.047
STAG2 (UniProt Q8N3U4) 0.037
SPATA33 isoform 2 (UniProt Q96N06) 0.027
SSR2 (UniProt P43308) 0.05
SPRYD3 (UniProt Q8NCJ5) 0.011
STAG1 (UniProt Q8WVM7) 0.053
SRCIN1 (UniProt Q9C0H9) -0.039
SS18L1 (UniProt O75177) -0.175
SRRD (UniProt Q9UH36) 0.246
SSX2IP (UniProt Q9Y2D8) 0.05
